According to the supplement of paper PMC10849652:
The other results are listed elsewhere or left out.

The chains behind the UniProt entries cited, without tags or fusion partners. Where a name states a change or a piece, a line headed by the entry shows the natural chain unless it says otherwise.
UniProt Q9NYF3: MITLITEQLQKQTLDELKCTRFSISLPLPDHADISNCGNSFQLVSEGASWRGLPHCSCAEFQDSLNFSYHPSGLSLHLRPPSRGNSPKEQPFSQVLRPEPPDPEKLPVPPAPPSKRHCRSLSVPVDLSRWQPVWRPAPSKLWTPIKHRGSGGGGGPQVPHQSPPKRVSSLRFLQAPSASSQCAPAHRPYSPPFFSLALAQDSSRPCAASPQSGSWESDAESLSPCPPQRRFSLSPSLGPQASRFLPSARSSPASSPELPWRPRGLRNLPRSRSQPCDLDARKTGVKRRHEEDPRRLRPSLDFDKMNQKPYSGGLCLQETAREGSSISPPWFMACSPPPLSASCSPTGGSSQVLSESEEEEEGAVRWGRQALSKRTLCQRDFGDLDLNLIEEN
UniProt Q14264: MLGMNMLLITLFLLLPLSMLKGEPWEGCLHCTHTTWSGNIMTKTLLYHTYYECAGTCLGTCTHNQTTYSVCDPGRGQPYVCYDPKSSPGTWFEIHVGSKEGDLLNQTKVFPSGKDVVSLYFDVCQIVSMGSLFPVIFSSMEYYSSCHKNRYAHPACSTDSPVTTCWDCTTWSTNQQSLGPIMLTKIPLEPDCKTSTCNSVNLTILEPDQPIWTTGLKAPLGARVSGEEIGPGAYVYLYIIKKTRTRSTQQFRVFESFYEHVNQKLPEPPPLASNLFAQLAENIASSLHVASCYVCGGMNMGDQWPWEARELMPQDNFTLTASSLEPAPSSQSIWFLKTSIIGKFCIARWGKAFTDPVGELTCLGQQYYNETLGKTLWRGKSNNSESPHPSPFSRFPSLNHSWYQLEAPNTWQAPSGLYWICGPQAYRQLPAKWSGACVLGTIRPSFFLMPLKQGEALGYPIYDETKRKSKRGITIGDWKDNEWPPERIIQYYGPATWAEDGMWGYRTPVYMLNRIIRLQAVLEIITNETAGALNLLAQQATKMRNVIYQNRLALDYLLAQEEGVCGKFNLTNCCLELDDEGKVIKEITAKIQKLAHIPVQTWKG
UniProt Q56NI9: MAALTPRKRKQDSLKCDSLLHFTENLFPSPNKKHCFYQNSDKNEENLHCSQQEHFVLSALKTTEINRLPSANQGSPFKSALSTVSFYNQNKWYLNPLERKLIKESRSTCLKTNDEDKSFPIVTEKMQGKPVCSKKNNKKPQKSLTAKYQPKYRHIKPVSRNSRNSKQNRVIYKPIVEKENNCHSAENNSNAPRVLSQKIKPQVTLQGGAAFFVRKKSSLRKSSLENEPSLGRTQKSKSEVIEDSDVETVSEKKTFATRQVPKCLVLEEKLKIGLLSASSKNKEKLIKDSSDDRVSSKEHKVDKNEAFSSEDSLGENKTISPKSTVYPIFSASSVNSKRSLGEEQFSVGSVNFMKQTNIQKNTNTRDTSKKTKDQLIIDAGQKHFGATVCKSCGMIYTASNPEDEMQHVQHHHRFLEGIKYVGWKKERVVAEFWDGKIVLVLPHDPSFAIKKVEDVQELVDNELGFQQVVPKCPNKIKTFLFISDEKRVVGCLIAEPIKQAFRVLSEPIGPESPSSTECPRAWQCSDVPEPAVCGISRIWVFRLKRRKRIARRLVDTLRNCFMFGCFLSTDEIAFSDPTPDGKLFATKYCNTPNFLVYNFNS
UniProt Q5VUB5: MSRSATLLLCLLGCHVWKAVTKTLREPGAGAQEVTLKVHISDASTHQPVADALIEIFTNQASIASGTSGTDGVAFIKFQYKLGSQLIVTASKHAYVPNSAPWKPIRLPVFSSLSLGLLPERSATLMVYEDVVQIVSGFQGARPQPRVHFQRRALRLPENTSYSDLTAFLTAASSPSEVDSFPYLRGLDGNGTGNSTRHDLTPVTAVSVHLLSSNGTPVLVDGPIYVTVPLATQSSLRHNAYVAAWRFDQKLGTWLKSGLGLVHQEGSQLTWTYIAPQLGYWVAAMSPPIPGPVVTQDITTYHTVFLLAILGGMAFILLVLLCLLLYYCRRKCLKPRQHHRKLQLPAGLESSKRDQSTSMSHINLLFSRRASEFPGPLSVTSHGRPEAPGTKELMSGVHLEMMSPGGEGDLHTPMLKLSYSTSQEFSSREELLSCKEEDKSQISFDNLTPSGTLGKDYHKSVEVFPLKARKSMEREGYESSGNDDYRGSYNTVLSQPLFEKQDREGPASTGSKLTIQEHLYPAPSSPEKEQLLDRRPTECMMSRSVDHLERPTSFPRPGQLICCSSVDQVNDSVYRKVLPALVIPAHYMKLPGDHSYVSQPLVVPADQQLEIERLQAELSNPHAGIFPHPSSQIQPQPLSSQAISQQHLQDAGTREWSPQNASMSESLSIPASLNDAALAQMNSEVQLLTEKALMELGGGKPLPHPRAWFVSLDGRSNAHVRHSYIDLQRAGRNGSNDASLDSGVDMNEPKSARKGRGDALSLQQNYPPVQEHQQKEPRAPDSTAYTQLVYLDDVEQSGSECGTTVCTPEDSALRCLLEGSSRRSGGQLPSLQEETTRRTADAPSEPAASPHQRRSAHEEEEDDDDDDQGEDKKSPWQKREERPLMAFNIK
EXOC3L2, A0A1C7CYX0, UniProt A0A1C7CYX0, whole entry, looked up: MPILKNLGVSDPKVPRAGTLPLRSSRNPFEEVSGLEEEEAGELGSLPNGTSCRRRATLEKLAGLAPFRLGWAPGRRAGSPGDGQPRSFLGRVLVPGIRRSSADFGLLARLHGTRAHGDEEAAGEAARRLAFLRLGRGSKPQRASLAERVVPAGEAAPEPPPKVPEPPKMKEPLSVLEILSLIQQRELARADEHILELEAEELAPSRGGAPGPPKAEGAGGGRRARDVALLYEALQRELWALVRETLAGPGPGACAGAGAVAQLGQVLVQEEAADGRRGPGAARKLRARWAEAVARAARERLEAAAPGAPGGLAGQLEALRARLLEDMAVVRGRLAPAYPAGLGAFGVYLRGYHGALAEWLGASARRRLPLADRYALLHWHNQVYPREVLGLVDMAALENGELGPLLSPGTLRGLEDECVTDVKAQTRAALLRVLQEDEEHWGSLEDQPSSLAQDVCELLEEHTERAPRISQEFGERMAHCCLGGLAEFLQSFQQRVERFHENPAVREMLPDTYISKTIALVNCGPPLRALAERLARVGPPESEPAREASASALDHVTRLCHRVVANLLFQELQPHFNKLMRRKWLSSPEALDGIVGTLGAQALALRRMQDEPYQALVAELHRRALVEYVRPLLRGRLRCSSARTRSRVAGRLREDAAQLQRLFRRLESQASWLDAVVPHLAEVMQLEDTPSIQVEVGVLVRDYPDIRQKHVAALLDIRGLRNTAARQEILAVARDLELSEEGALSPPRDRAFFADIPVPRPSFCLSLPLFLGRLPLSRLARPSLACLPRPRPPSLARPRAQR
UniProt Q9NVM1: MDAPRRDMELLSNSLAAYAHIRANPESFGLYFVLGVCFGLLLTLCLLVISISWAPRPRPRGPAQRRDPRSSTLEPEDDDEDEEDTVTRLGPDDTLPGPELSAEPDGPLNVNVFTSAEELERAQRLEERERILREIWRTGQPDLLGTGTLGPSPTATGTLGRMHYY
UniProt Q9BVV8: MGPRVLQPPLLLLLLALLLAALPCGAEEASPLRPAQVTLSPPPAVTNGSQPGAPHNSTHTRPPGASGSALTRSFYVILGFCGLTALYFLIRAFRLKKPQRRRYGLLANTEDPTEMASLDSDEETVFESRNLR
UniProt Q96CN4: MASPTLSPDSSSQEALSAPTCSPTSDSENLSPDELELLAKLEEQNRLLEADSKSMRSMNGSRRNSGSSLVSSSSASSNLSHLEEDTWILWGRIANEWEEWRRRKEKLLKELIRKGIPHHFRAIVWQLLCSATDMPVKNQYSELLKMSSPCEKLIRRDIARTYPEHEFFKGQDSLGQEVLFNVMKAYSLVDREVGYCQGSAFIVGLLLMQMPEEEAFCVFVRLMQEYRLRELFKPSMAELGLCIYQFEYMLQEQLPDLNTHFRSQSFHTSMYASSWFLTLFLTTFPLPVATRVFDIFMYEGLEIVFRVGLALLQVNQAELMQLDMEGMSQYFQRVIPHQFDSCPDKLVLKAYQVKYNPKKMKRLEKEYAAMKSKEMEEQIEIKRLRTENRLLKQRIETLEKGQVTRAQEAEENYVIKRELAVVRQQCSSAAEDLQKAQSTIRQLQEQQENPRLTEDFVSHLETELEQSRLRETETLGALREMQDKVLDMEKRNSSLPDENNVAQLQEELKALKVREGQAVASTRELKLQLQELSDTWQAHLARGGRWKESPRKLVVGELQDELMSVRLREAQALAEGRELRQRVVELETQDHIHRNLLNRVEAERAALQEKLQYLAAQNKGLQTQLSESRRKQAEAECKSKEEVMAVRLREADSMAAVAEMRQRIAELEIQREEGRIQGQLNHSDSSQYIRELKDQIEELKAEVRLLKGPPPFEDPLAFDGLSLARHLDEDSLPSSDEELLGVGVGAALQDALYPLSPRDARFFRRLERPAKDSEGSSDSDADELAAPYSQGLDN
UniProt Q8IW50: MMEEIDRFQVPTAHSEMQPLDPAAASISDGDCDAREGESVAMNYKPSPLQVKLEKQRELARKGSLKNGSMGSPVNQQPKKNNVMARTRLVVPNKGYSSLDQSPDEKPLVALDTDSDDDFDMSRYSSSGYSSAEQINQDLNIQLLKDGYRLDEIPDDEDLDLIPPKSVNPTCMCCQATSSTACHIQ
UniProt P41212: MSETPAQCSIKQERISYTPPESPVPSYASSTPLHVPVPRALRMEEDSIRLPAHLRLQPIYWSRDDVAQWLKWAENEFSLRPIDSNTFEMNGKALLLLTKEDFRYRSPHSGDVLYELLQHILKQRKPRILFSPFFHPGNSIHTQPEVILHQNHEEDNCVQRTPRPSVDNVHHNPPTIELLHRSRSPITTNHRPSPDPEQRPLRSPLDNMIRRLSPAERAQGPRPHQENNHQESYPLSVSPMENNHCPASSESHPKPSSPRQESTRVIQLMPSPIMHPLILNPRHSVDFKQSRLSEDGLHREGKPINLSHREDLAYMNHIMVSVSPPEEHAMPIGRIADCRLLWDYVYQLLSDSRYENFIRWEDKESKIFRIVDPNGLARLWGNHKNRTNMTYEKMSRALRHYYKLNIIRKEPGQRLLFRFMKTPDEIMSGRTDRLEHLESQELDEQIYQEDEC
UniProt P43268: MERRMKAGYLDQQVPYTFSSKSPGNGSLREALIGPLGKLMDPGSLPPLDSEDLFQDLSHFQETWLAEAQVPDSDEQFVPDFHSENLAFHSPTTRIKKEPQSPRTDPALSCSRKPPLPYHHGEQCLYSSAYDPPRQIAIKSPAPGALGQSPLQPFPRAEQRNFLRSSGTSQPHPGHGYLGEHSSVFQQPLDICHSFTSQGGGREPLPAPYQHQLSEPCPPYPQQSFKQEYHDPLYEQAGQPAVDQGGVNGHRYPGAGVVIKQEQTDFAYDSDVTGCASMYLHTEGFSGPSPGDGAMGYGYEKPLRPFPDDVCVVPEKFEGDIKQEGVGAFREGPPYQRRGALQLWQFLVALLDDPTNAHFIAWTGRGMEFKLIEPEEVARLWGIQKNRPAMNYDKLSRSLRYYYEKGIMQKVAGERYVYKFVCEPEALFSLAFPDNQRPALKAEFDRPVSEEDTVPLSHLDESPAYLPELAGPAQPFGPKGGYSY
UniProt Q9NVH0: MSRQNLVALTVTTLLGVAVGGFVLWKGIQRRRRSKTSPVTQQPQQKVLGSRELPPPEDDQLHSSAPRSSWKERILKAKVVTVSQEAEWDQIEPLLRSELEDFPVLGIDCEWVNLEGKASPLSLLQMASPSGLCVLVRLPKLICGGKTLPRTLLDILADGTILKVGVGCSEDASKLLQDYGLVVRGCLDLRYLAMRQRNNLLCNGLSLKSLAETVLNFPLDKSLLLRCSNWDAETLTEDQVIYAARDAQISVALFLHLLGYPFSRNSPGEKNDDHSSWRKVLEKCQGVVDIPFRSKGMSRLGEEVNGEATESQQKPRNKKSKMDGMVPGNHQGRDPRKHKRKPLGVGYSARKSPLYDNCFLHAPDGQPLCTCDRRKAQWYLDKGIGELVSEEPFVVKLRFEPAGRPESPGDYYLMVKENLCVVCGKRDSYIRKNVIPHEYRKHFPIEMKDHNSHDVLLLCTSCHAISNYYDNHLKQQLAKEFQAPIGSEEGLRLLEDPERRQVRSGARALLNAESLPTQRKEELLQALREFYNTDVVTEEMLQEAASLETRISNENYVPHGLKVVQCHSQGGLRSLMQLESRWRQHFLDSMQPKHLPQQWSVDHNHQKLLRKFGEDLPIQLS
UniProt P25116: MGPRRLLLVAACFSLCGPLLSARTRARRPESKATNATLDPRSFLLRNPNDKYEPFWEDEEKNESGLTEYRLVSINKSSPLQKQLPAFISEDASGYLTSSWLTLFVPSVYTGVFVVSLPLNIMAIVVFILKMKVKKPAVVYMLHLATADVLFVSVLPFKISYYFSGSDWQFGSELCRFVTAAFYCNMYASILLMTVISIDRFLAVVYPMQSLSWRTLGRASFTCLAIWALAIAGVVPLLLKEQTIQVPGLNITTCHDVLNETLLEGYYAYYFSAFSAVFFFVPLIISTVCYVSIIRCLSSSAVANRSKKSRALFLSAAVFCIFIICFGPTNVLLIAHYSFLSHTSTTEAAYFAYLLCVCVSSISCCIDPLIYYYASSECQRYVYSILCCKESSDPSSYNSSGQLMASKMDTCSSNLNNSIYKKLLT

How the values were obtained:
Test in all cases: log2 fold change, soluble protein after heating vs DMSO (PISA); higher = thermal stabilisation; K562 lysate, 10 uM; active = over 0.2 and 3.5 SD of the protein, either way, in both replicates (recomputed)
[1] = compound: C1=CC=C(C=C1)[C@H](COC2=CC3=C(C=C2)NC(=O)N3)NC(=O)C4=CC=CN(C4=O)CC5=CC(=C(C=C5)F)F
Outline: (§1)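 Quantification was by TMTpro 16plex LC-MS/MS with equalised channel sums, applied to the supernatant after 21,000xg for 90 min. Samples were crude K562 extract at 1 mg/mL protein in PBS pH 7.4 with 1 mM MgCl2, treated with 10 μM compound for 30 min, heated for 3 min across 48°C-58°C, pooled and brought to 0.5% NP-40 at 4°C. Values are log-two fold changes in thermal stability relative to solvent controls, from duplicates.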

[2] = compound: CC1=C(SC2=C1C(=N[C@H](C3=NN=C(N32)C)CC(=O)N)C4=CC=C(C=C4)Cl)C
Outline: as §1

[3] = compound: c1ccc([C@@H]2C[C@H]2NC2CCNCC2)cc1
Outline: as §1

[4] = compound: Cc1sc2c(c1C)C(c1ccc(Cl)cc1)=N[C@@H](CC(=O)OC(C)(C)C)c1nnc(C)n1-2
Outline: as §1

[5] = compound: CC1=C2C(=CC=C1)N=C(N(C2=O)C3=CC=CC=C3C)CN4C=NC5=C(N=CN=C54)N
Outline: as §1

Target: ESRRB isoform 1 (UniProt O95718)
- log2 fold change [1]: inactive: -0.147
- log2 fold change [2]: inactive: 0.109
- log2 fold change [3]: inactive: 0.321

Target: FAM219B (UniProt Q5XKK7)
- log2 fold change [1]: inactive: -0.119
- log2 fold change [2]: inactive: 0.017
- log2 fold change [3]: inactive: 0.04

Target: FAM53C (UniProt Q9NYF3)
- log2 fold change [1]: inactive: -0.057
- log2 fold change [2]: inactive: 0.074
- log2 fold change [4]: inactive: 0
- log2 fold change [3]: inactive: -0.013

Target: EXOC6B (UniProt Q9Y2D4)
- log2 fold change [5]: inactive: 0.106

Target: FAM135A (UniProt Q9P2D6)
- log2 fold change [1]: inactive: 0.076
- log2 fold change [2]: inactive: 0.087
- log2 fold change [4]: inactive: 0.045
- log2 fold change [3]: inactive: -0.108

Target: ERV3-1 (UniProt Q14264)
- log2 fold change [4]: inactive: 0.267

Target: ESPN (UniProt B1AK53)
- log2 fold change [4]: inactive: 0.079

Target: FAM13A (UniProt O94988)
- log2 fold change [4]: inactive: -0.282

Target: FAM193B (UniProt Q96PV7)
- log2 fold change [5]: inactive: 0.064
- log2 fold change [3]: inactive: -0.054

Target: FAM3A (UniProt Q9BU27)
- log2 fold change [4]: inactive: 0.442

Target: ESCO2 (UniProt Q56NI9)
- log2 fold change [4]: inactive: -0.195
- log2 fold change [3]: inactive: 0.295

Target: ETV5 isoform 2 (UniProt P41161)
- log2 fold change [5]: inactive: 0.04
- log2 fold change [3]: inactive: -0.047

Target: FAM171A1 (UniProt Q5VUB5)
- log2 fold change [4]: inactive: 0.243

Target: EXOC3L2, A0A1C7CYX0
- log2 fold change [4]: inactive: -0.016
- log2 fold change [3]: inactive: 0.07

Target: EVI2B isoform 2 (UniProt P34910)
- log2 fold change [3]: inactive: -0.047

Target: EVA1B (UniProt Q9NVM1)
- log2 fold change [4]: inactive: -0.152

Target: FAM174C (UniProt Q9BVV8)
- log2 fold change [3]: inactive: -0.129

Target: FAM111A (UniProt Q96PZ2)
- log2 fold change [5]: inactive: -0.008
- log2 fold change [4]: inactive: -0.097

Target: FAM204A (UniProt Q9H8W3)
- log2 fold change [5]: inactive: -0.102
- log2 fold change [3]: inactive: -0.035

Target: EVI5L isoform 2 (UniProt Q96CN4)
- log2 fold change [3]: inactive: 0.036

Target: FAM160B2 (UniProt Q86V87)
- log2 fold change [5]: inactive: 0.024
- log2 fold change [3]: inactive: 0.025

Target: ETV1 (UniProt P50549)
- log2 fold change [4]: inactive: 0.08

Target: FAM219A (UniProt Q8IW50)
- log2 fold change [1]: inactive: -0.011
- log2 fold change [2]: inactive: 0.057
- log2 fold change [4]: inactive: 0.025
- log2 fold change [3]: inactive: -0.002

Target: ETV6 (UniProt P41212)
- log2 fold change [5]: inactive: -0.001
- log2 fold change [4]: inactive: -0.026
- log2 fold change [3]: inactive: 0.077

Target: FAM76B (UniProt Q5HYJ3)
- log2 fold change [5]: inactive: 0.066
- log2 fold change [4]: inactive: 0.038
- log2 fold change [3]: inactive: -0.099

Target: F2RL3 (UniProt Q96RI0)
- log2 fold change [5]: inactive: 0.032
- log2 fold change [4]: inactive: 0
- log2 fold change [3]: inactive: 0.199

Target: FAM120A, A0A494C0Y9
- log2 fold change [4]: inactive: -0.047

Target: ETV4 (UniProt P43268)
- log2 fold change [5]: inactive: 0.036
- log2 fold change [3]: inactive: -0.078

Target: FAM72C (UniProt H0Y354)
- log2 fold change [5]: inactive: -0.063
- log2 fold change [3]: inactive: 0.092

Target: EXD2 (UniProt Q9NVH0)
- log2 fold change [5]: inactive: 0.119
- log2 fold change [4]: inactive: 0.001

Target: EXO1 (UniProt Q9UQ84)
- log2 fold change [5]: inactive: 0.339
- log2 fold change [3]: inactive: -0.063

Target: F2R (UniProt P25116)
- log2 fold change [3]: inactive: 0.032
